Results are given in words; binding and its absence hold for the method and conditions named. Some binding calls cover weakened binding; strength is not graded here.
Key:
[1] = molecular target: T1, Talin F3 sub-domain, wild type (mouse, UniProt P26039 309-405, limits assumed); assay: 1H-15N HSQC NMR titration of talin F3
T1 construct: domain: F3 sub-domain; U-15N labelled for NMR; also called Talin F3 wt; talin F3 domain

By UniProt entry, the sequences of proteins in these tests, tags left out. Residues count along the entry.
UniProt P26039, residues 309-405: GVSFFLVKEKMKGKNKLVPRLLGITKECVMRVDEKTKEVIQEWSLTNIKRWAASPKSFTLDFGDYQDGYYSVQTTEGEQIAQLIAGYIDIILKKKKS

[2] = molecular target: T1, Talin F3 sub-domain, wild type; assay: 1H-15N HSQC NMR titration of 15N talin F3 with the peptide, weighted shift map per residue [third panel]
[3] = molecular target: T1, Talin F3 sub-domain, wild type; assay: 1H-15N HSQC NMR titration of 15N talin F3 with the peptide, weighted shift map per residue

Measured: binding

WDTANNPLYDEA [MD peptide (membrane-distal β3 integrin tail peptide)]
binds: all assays above

Reference: patent US20100210525A1 (University of California, published 2010)
